Reference: the supplement of paper PMC10849652
The list shows a part of the results.

Chains of the proteins cited; added tags and fusions are not shown. Lines headed by an entry give the natural chain unless they say otherwise; changes in a name come on top.
UniProt Q96KG9: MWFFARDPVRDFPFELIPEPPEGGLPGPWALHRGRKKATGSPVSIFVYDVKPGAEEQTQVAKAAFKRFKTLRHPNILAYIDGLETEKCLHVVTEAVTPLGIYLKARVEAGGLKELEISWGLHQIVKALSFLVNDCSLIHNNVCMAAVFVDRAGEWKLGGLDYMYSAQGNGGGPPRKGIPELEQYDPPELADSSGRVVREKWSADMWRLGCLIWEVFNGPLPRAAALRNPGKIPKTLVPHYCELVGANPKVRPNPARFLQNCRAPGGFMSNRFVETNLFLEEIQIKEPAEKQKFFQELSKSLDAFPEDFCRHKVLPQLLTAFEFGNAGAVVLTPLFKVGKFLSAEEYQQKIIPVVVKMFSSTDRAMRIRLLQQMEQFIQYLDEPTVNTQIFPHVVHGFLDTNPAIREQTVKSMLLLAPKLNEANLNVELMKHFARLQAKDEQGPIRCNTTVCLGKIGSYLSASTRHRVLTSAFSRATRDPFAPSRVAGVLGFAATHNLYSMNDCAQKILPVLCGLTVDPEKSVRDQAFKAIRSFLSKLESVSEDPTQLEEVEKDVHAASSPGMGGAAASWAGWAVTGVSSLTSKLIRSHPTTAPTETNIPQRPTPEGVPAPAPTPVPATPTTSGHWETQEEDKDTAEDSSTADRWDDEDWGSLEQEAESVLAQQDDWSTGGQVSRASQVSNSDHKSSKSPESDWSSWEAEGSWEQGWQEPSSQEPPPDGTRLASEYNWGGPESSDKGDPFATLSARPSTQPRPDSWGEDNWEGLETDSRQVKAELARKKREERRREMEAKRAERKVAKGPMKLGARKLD
UniProt O95248: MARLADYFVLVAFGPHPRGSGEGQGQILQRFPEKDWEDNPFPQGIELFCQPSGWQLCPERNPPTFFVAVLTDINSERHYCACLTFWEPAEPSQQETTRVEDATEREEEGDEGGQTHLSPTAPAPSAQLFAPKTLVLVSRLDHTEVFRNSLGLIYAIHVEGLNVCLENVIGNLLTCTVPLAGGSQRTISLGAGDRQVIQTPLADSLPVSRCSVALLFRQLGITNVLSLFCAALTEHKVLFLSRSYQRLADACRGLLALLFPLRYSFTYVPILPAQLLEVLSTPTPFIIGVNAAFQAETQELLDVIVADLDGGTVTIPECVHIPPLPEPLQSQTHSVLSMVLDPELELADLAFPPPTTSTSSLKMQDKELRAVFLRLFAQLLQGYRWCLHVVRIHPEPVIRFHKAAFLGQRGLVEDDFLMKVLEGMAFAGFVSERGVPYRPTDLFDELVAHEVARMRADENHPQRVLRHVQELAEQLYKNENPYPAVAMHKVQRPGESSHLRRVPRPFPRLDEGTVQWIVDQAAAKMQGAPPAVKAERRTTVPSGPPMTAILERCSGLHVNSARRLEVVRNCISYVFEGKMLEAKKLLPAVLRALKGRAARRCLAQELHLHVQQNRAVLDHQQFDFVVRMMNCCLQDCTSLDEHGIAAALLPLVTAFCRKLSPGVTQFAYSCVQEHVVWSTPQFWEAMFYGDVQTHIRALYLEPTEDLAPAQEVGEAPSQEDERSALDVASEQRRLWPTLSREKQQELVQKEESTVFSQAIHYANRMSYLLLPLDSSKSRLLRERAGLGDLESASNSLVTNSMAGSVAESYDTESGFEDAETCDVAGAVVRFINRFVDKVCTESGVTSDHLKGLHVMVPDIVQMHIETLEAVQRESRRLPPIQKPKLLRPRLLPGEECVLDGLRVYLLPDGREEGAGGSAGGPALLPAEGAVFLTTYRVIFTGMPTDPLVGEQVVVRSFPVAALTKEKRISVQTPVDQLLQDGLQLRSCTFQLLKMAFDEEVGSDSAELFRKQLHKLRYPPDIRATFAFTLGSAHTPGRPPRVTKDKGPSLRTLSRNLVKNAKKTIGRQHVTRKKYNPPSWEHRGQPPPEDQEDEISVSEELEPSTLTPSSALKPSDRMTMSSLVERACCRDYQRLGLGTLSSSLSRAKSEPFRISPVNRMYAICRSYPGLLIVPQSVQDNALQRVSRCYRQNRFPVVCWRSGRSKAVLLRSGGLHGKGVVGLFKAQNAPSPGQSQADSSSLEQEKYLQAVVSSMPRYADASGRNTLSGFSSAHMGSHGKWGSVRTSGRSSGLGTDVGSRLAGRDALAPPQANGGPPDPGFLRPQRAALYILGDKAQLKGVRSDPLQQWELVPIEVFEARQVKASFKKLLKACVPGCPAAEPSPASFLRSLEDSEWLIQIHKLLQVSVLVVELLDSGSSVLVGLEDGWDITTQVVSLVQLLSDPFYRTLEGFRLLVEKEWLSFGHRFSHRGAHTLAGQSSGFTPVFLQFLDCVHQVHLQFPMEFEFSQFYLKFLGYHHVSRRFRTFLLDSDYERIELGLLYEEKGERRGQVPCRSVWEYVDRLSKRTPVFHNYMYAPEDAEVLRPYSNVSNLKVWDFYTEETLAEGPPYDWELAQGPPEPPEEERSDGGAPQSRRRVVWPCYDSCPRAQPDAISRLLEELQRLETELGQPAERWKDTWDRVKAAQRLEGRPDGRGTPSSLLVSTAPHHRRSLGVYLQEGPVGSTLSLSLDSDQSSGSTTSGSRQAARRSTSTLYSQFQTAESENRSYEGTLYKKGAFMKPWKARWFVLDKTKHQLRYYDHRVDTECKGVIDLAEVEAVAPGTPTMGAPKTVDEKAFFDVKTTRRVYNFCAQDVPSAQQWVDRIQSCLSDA
UniProt P21912: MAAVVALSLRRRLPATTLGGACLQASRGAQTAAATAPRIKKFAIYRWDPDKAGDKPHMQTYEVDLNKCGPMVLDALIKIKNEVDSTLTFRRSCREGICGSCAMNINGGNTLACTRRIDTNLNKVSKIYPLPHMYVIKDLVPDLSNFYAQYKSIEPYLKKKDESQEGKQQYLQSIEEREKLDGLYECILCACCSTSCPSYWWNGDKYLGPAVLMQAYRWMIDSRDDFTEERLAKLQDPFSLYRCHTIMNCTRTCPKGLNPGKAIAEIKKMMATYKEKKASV
UniProt Q9UHR5: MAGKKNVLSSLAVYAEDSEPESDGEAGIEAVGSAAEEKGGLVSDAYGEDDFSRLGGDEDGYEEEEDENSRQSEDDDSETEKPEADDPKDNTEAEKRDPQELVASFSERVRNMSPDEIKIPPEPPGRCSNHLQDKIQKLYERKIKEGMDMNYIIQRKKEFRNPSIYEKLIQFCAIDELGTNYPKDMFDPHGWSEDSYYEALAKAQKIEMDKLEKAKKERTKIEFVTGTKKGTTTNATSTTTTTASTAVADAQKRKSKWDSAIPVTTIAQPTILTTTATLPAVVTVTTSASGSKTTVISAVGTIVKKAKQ
UniProt P25815: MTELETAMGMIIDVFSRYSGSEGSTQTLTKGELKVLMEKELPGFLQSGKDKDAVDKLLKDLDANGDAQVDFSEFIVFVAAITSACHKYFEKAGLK
UniProt Q9H7N4: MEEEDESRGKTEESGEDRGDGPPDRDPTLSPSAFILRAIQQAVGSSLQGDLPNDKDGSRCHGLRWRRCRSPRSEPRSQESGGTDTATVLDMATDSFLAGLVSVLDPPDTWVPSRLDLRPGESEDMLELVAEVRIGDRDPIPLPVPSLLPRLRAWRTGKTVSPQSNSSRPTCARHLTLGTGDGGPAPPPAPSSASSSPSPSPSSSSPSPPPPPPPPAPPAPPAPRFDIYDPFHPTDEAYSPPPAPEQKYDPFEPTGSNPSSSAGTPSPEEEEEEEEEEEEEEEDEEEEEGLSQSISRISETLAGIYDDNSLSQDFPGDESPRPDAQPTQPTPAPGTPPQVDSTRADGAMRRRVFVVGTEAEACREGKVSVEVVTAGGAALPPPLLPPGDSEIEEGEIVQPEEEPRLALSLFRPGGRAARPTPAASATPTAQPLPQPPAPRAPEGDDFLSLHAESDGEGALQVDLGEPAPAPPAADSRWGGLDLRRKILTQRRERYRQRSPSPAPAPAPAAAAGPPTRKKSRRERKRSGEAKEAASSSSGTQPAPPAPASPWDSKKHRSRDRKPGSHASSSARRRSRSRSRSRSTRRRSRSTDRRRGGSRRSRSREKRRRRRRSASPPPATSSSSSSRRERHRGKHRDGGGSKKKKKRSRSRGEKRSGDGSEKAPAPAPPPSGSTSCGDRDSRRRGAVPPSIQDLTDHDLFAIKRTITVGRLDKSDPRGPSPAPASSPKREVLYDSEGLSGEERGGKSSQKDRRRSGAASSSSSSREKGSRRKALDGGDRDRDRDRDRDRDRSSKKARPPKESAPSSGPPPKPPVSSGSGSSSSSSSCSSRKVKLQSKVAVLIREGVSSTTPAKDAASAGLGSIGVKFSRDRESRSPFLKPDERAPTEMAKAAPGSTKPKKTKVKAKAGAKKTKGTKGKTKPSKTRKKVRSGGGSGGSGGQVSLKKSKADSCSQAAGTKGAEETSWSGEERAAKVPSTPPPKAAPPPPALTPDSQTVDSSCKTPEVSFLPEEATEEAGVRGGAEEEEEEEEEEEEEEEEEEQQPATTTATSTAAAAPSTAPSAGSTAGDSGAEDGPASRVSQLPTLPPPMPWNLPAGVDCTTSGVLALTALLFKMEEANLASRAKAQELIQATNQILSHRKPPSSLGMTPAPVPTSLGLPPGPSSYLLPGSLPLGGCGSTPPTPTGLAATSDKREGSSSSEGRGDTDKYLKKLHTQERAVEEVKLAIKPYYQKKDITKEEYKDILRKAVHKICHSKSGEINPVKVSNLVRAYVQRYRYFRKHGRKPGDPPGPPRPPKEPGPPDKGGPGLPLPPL
UniProt Q9Y265, whole entry, looked up: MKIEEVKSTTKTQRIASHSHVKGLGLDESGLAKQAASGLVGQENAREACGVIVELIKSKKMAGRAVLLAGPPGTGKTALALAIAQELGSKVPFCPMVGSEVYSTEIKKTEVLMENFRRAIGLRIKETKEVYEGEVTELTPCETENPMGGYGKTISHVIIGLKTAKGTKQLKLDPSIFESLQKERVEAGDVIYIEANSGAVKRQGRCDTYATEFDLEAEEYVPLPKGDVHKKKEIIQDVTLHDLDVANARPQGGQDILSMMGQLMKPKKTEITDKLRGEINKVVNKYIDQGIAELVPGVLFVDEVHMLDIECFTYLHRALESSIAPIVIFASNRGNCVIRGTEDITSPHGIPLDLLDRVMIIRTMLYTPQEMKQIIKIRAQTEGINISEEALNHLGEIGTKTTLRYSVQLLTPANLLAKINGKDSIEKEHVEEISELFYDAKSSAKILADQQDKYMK
UniProt Q9NQC3: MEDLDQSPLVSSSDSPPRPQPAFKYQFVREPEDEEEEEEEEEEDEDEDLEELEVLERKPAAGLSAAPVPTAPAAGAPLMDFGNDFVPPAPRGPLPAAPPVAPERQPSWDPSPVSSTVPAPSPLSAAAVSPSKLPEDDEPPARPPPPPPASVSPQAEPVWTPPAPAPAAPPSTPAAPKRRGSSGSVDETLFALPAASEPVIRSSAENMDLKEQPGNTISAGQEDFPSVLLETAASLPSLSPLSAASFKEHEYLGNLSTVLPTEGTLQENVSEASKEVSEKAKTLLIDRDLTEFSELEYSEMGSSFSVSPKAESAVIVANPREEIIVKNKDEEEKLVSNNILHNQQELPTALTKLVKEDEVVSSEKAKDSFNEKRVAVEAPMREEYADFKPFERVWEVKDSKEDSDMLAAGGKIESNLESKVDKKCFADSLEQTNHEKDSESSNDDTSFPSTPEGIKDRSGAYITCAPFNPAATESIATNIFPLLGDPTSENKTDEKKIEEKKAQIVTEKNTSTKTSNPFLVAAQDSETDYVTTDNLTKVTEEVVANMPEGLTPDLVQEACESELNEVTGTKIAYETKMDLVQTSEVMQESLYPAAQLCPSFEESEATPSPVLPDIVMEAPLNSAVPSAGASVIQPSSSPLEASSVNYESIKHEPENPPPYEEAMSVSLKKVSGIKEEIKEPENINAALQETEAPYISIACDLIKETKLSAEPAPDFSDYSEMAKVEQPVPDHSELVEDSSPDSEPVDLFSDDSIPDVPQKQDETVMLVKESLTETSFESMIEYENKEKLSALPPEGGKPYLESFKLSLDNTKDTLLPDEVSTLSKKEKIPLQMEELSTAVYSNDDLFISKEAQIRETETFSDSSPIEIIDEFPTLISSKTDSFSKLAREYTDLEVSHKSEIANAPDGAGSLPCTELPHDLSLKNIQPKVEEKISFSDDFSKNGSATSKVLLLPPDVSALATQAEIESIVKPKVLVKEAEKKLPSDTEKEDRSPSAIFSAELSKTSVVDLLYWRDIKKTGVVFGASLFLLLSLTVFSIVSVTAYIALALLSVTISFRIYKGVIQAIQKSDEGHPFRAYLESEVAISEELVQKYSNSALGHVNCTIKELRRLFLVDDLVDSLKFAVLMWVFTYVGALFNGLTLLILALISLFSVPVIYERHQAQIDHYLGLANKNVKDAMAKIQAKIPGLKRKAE
UniProt O75396: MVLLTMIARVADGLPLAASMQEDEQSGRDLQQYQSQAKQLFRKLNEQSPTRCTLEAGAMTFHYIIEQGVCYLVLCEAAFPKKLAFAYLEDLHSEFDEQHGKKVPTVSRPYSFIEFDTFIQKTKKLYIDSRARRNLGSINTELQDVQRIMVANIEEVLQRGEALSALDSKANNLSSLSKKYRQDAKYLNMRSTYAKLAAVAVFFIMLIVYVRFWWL

Legend:
Experiment in all cases: log2 fold change, soluble protein after heating vs DMSO (PISA); higher = thermal stabilisation; K562 cells, 10 uM, 30 min; active = over 0.2 and 3.5 SD of the protein, either way, in both replicates (recomputed)
[1] = compound: CS(=O)(=O)c1ccc(-c2cnc(N)c(C(=O)Nc3ccccc3)n2)cc1
Summary of the method: (§1)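 K562 cells at 2×10^6 cells/mL were treated for 30 min with 10 μM compound, and aliquots were heated for 3 min over 48°C-58°C before pooling. Extraction used PBS with 0.5% NP-40 at 4°C, and soluble protein was the supernatant after 21,000xg for 90 min, measured by TMTpro 16plex LC-MS/MS with channel sums equalised. Thermal stability values, relative to control samples and from duplicates, are log2 fold changes.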

[2] = compound: C[C@@H](Oc1cc(-c2cnn(C3CCNCC3)c2)cnc1N)c1c(Cl)ccc(F)c1Cl [crizotinib]
Summary of the method: as §1

[3] = compound: C[C@@H]1COCCN1C2=NC(=NC(=C2)C3(CC3)S(=O)(=O)C)C4=C5C=CNC5=CC=C4
Summary of the method: as §1

[4] = compound: C[C@H](C1=CC=C(C=C1)C(=O)NC2=C3C=CNC3=NC=C2)N
Summary of the method: as §1

[5] = compound: C[C@H](Nc1ncnc2nc[nH]c12)c1cc2cccc(Cl)c2c(=O)n1-c1ccccc1 [duvelisib]
Summary of the method: as §1

[6] = compound: Cc1cc(Nc2cc(CN3CCOCC3)c3nc(C)c(Cc4ccc(Cl)cc4F)n3n2)n[nH]1 [gandotinib]
Summary of the method: as §1

[7] = compound: Cc1cc(Nc2cc(N3CCN(C)CC3)nc(Sc3ccc(NC(=O)C4CC4)cc3)n2)n[nH]1 [tozasertib]
Summary of the method: as §1

[8] = compound: Cc1cc(SCc2sc(-c3ccc(C(F)(F)F)cc3)nc2C)ccc1OCC(=O)O
Summary of the method: as §1

[9] = compound: Cc1ccc(-n2nc(C(C)(C)C)cc2NC(=O)Nc2ccc(OCCN3CCOCC3)c3ccccc23)cc1 [doramapimod]
Summary of the method: as §1

[10] = compound: Cc1ccc(C(=O)N(CCCN)[C@@H](c2nc3cc(Cl)ccc3c(=O)n2Cc2ccccc2)C(C)C)cc1 [ispinesib]
Summary of the method: as §1

Measured: log2 fold change

S100A11 (UniProt P31949)
inactive: [1] 0.033 | [2] 0.191 | [3] 0.089 | [4] -0.072 | [5] 0.056 | [6] 0.079 | [7] 0.035 | [8] 0.002 | [9] -0.02 | [10] 0.184

SCFD2 (UniProt Q8WU76)
inactive: [1] 0.034 | [2] -0.103 | [3] 0.111 | [4] 0.121 | [5] -0.066 | [6] -0.129 | [7] 0.148 | [8] 0.058 | [9] -0.005 | [10] -0.196

SCFD1 (UniProt Q8WVM8)
inactive: [1] 0.009 | [2] -0.049 | [3] 0.033 | [4] 0.034 | [5] 0.026 | [6] -0.075 | [7] 0.009 | [8] 0.097 | [9] -0.034 | [10] -0.003

SASS6 (UniProt Q6UVJ0)
inactive: [1] 0.092 | [2] 0.004 | [3] -0.021 | [4] 0.061 | [5] -0.143 | [6] -0.169 | [7] -0.056 | [8] 0.022 | [9] 0.066 | [10] -0.126

SCYL1 (UniProt Q96KG9)
inactive: [1] -0.005 | [2] -0.028 | [3] 0.036 | [4] -0.016 | [5] -0.013 | [6] -0.083 | [7] -0.009 | [8] 0.086 | [9] -0.006 | [10] 0.028

SCAMP3 (UniProt O14828)
inactive: [1] 0.006 | [2] -0.03 | [3] 0.096 | [4] -0.003 | [5] 0.007 | [6] 0.025 | [7] -0.021 | [8] -0.035 | [9] -0.048 | [10] -0.107

S100A13 (UniProt Q99584)
inactive: [1] 0.018 | [2] -0.065 | [3] 0.067 | [4] -0.048 | [5] 0.044 | [6] -0.052 | [7] -0.016 | [8] -0.001 | [9] -0.002 | [10] -0.023

SCO1 (UniProt O75880)
inactive: [1] 0.033 | [2] -0.113 | [3] 0.068 | [4] -0.052 | [5] 0.026 | [6] -0.008 | [7] -0.02 | [8] 0.032 | [9] 0.009 | [10] -0.136

SACS (UniProt Q9NZJ4)
inactive: [1] -0.041 | [2] 0.037 | [3] 0.185 | [4] -0.115 | [5] 0.093 | [6] 0.022 | [7] -0.001 | [8] 0.085 | [9] 0.011 | [10] -0.022

SEC11C (UniProt Q9BY50)
inactive: [1] -0.084 | [2] -0.114 | [3] 0.062 | [4] -0.012 | [5] -0.02 | [6] -0.039 | [7] -0.04 | [8] -0.085 | [9] -0.022 | [10] -0.109

SBF1 isoform 4 (UniProt O95248)
inactive: [1] -0.044 | [2] -0.159 | [3] -0.131 | [4] 0.149 | [5] -0.188 | [6] -0.005 | [7] -0.067 | [8] 0.083 | [9] 0.026 | [10] -0.213

SBDS (UniProt Q9Y3A5)
inactive: [1] 0.057 | [2] -0.064 | [3] 0.11 | [4] -0.015 | [5] 0.02 | [6] -0.104 | [7] -0.023 | [8] 0.072 | [9] -0.039 | [10] -0.018

SDHB (UniProt P21912)
inactive: [1] 0.027 | [2] 0.045 | [3] 0.023 | [4] -0.029 | [5] -0.005 | [6] 0.013 | [7] -0.023 | [8] -0.062 | [9] -0.041 | [10] 0.009

SARG (UniProt Q9BW04)
inactive: [1] 0.063 | [2] 0.006 | [3] 0.041 | [4] 0.047 | [5] 0.027 | [6] 0.017 | [7] -0.041 | [8] -0.027 | [9] 0.004 | [10] 0.005

SDF2L1 (UniProt Q9HCN8)
inactive: [1] 0.033 | [2] 0.076 | [3] 0.057 | [4] 0.013 | [5] -0.031 | [6] 0.04 | [7] 0.026 | [8] 0.03 | [9] -0.007 | [10] -0.038

SEC11A isoform 3 (UniProt P67812)
inactive: [1] -0.012 | [2] -0.006 | [3] -0.012 | [4] 0.005 | [5] 0.036 | [6] -0.061 | [7] 0.006 | [8] -0.003 | [9] 0.001 | [10] -0.026

Reprinted from the entries so far (8 entries):
SCAMP3 (UniProt O14828)
inactive: [1] 0.006 | [2] -0.03 | [3] 0.096 | [4] -0.003 | [5] 0.007 | [6] 0.025 | [7] -0.021 | [8] -0.035 | [9] -0.048 | [10] -0.107

S100A13 (UniProt Q99584)
inactive: [1] 0.018 | [2] -0.065 | [3] 0.067 | [4] -0.048 | [5] 0.044 | [6] -0.052 | [7] -0.016 | [8] -0.001 | [9] -0.002 | [10] -0.023

SCO1 (UniProt O75880)
inactive: [1] 0.033 | [2] -0.113 | [3] 0.068 | [4] -0.052 | [5] 0.026 | [6] -0.008 | [7] -0.02 | [8] 0.032 | [9] 0.009 | [10] -0.136

SACS (UniProt Q9NZJ4)
inactive: [1] -0.041 | [2] 0.037 | [3] 0.185 | [4] -0.115 | [5] 0.093 | [6] 0.022 | [7] -0.001 | [8] 0.085 | [9] 0.011 | [10] -0.022

SEC11C (UniProt Q9BY50)
inactive: [1] -0.084 | [2] -0.114 | [3] 0.062 | [4] -0.012 | [5] -0.02 | [6] -0.039 | [7] -0.04 | [8] -0.085 | [9] -0.022 | [10] -0.109

SBF1 isoform 4 (UniProt O95248)
inactive: [1] -0.044 | [2] -0.159 | [3] -0.131 | [4] 0.149 | [5] -0.188 | [6] -0.005 | [7] -0.067 | [8] 0.083 | [9] 0.026 | [10] -0.213

SBDS (UniProt Q9Y3A5)
inactive: [1] 0.057 | [2] -0.064 | [3] 0.11 | [4] -0.015 | [5] 0.02 | [6] -0.104 | [7] -0.023 | [8] 0.072 | [9] -0.039 | [10] -0.018

SDHB (UniProt P21912)
inactive: [1] 0.027 | [2] 0.045 | [3] 0.023 | [4] -0.029 | [5] -0.005 | [6] 0.013 | [7] -0.023 | [8] -0.062 | [9] -0.041 | [10] 0.009

Further results:

SAMM50 (UniProt Q9Y512)
inactive: [1] 0.015 | [2] 0.042 | [3] -0.023 | [4] -0.06 | [5] -0.003 | [6] -0.029 | [7] 0.008 | [8] -0.023 | [9] -0.037 | [10] -0.006

RWDD3 (UniProt Q9Y3V2)
inactive: [1] 0.076

SCARB1 isoform 2 (UniProt Q8WTV0)
inactive: [1] 0.058 | [2] -0.012 | [3] 0.046 | [4] -0.085 | [5] 0.093 | [6] -0.032 | [7] -0.012 | [8] 0.037 | [9] -0.035 | [10] 0.037

SCAF4 (UniProt O95104)
inactive: [1] -0.008 | [2] 0 | [3] 0.038 | [4] 0.062 | [5] -0.086 | [6] -0.022 | [7] -0.047 | [8] 0.171 | [9] 0.101

SAP30BP (UniProt Q9UHR5)
inactive: [1] -0.017 | [2] 0.047 | [3] 0.042 | [4] -0.081 | [5] -0.025 | [6] 0 | [7] 0.019 | [8] -0.082 | [9] -0.022 | [10] 0.02

SCAMP1 (UniProt O15126)
inactive: [1] 0.027 | [2] -0.042 | [3] -0.076 | [4] -0.05 | [5] -0.008 | [6] 0.023 | [7] -0.064 | [8] -0.04 | [9] 0.01 | [10] -0.159

S100P (UniProt P25815)
inactive: [1] -0.048 | [2] 0.096 | [3] 0.059 | [4] -0.136 | [5] 0.338 | [6] 0.227 | [7] 0.018 | [8] -0.05 | [9] -0.092 | [10] 0.334

RSBN1L (UniProt Q6PCB5)
inactive: [1] -0.002 | [2] -0.047 | [3] -0.396 | [4] 0.265 | [5] -0.18 | [6] 0.21 | [7] 0.075 | [8] 0.019 | [9] 0.149 | [10] -0.056

SCAF1 (UniProt Q9H7N4)
inactive: [1] 0.034

RUVBL1 (UniProt Q9Y265)
inactive: [1] 0.046 | [2] 0.114 | [3] -0.02 | [4] -0.016 | [5] 0.02 | [6] 0.036 | [7] -0.006 | [8] -0.072 | [9] -0.002 | [10] 0.098

RTN4 isoform 2 (UniProt Q9NQC3)
inactive: [1] 0.05 | [2] 0.055 | [3] 0.121 | [4] 0 | [5] 0.116 | [6] -0.001 | [7] -0.015 | [8] -0.016 | [9] 0.057 | [10] -0.043

SAFB isoform 3 (UniProt Q15424)
inactive: [1] 0.026 | [2] -0.042 | [3] -0.229 | [4] 0.025 | [5] -0.078 | [6] 0.24 | [7] -0.096 | [8] -0.046 | [9] 0.037 | [10] 0.04

SCRN3 (UniProt Q0VDG4)
inactive: [1] 0.017 | [2] 0.032 | [3] 0.009 | [4] -0.051 | [5] 0.001 | [6] 0.034 | [7] 0.046 | [8] 0.021 | [9] 0.001 | [10] -0.031

SART1 (UniProt O43290)
inactive: [1] -0.101 | [2] -0.079 | [3] -0.646 | [4] 0.265 | [5] -0.214 | [6] 0.201 | [7] 0.005 | [8] 0.024 | [9] 0.296 | [10] -0.213

SEC22B (UniProt O75396)
inactive: [1] 0.006 | [2] 0.071 | [3] 0.04 | [4] -0.076 | [5] 0.033 | [6] -0.068 | [7] 0.011 | [8] 0.037 | [9] 0 | [10] 0.186
